Data reported in patent publication US10563263B2, “Genetic polymorphisms associated with statin response and cardiovascular diseases, methods of detection and uses thereof” (CELERA CORPORATION, priority 2010, dated 2020).
Further values from the same series stand in other lists.

System: CHD (death from CHD, nonfatal MI, or revascularization)
Test: WOSCOPS: SNP by pravastatin treatment interaction, logistic regression (synergy index), CHD endpoint
Assay type: in vivo, human
Conditions: WOSCOPS, pravastatin vs placebo
From the text: CARE was a secondary prevention trial and WOSCOPS was a primary prevention trial.
The CHD endpoint was defined in the analyses herein of CARE as a composite endpoint of fatal CHD, definite non-fatal MI, or revascularization, and was defined in the analyses herein of WOSCOPS as a composite endpoint of death from CHD, nonfatal MI, or revascularization. In both the CARE and WOSCOPS analyses herein, the CVD endpoint was defined as a composite endpoint of CHD or stroke. […] Revascularization, which can include percutaneous transluminal coronary angioplasty (PTCA), stent placement, and coronary artery bypass graft (CABG), are medical interventions that indicate the presence of CHD.
Cohort and case-only study designs were used to identify SNPs associated with response to statin treatment.
For each SNP, a logistic regression model having treatment status as the dependent variable and SNP as the independent predictor variable was performed, with terms for age, sex and race included in the model as covariates. The anti-log of the regression coefficient corresponding to the SNP is an estimate of the synergy index (SI) (Davis et al., “Imputing gene-treatment interactions when the genotype distribution is unknown using case-only and putative placebo analyses-a new method for the Genetics of Hypertension Associated Treatment (GenHAT) study”, Statistics in Medicine 23: (2004), pages 2413-2427). The SI is a ratio of odds ratios: for example in the CARE and WOSCOPS studies, the SI represents the factor by which the odds-ratio of statin treatment, compared with placebo, among major homozygous individuals is multiplied by in order to obtain the odds-ratio of treatment vs. placebo among heterozygous individuals; and multiplied by a second time to obtain the odds-ratio of treatment vs. placebo in minor homozygous individuals. The case-only study design results in a valid estimate of the SI under the assumption that genotype and treatment are independent in the population. In a randomized clinical trial, genotype and treatment are independent by design. The p-value for the regression coefficient corresponding to the SNP results from a test of the null hypothesis that the regression coefficient is equal to zero (SI is equal to one) and thus small p-values indicate the SI is unlikely equal to one and that the effect of treatment likely differs by genotype. […]

With `CC[C@H](C)C(=O)O[C@H]1C[C@H](O)C=C2C=C[C@H](C)[C@H](CC[C@@H](O)C[C@@H](O)CC(=O)O)[C@H]21` [Pravastatin, pravastatin] the OR (SNP rs879961, allele (A1) T, model ADD, Imputed) was 0.7316, the OR (SNP rs879961, allele (A1) T, model DOM, Imputed) was 0.5986 and the OR (SNP rs906353, allele (A1) A, model DOM, Imputed) was 0.6603. It also gave an OR (SNP rs915491, allele (A1) C, model DOM, Imputed) of 1.452, an OR (SNP rs915493, allele (A1) T, model DOM, Imputed) of 1.452 and an OR (SNP rs915494, allele (A1) A, model ADD, Imputed) of 1.279. The OR (SNP rs915494, allele (A1) A, model DOM, Imputed) was 1.409, the OR (SNP rs917295, allele (A1) G, model DOM, Imputed) was 0.6749 and the OR (SNP rs966583, allele (A1) A, model ADD, Imputed) was 0.6846. It also gave an OR (SNP rs966583, allele (A1) A, model DOM, Imputed) of 0.6092, an OR (SNP rs7894867, allele (A1) T, model DOM, Imputed) of 1.833 and an OR (SNP rs7921834, allele (A1) C, model DOM, Imputed) of 1.458. It also gave an OR (SNP rs7939893, allele (A1) C, model ADD, Imputed) of 0.8337, an OR (SNP rs7939893, allele (A1) C, model DOM, Imputed) of 0.7294 and an OR (SNP rs7944513, allele (A1) T, model REC, Imputed) of 2.257. The OR (SNP rs7949720, allele (A1) G, model ADD, Imputed) was 0.6348, the OR (SNP rs7949720, allele (A1) G, model DOM, Imputed) was 0.6285 and the OR (SNP rs7955901, allele (A1) C, model ADD, Imputed) was 0.7576. For the same compound, the OR (SNP rs7955901, allele (A1) C, model DOM, Imputed) was 0.5886, the OR (SNP rs7956274, allele (A1) T, model ADD, Imputed) was 0.7688 and the OR (SNP rs7956274, allele (A1) T, model DOM, Imputed) was 0.6074. For the same compound, the OR (SNP rs7957932, allele (A1) G, model ADD, Imputed) was 0.7693, the OR (SNP rs7957932, allele (A1) G, model DOM, Imputed) was 0.5936 and the OR (SNP rs7999518, allele (A1) A, model REC, Imputed) was 0.6295. For the same compound, the OR (SNP rs8026245, allele (A1) G, model REC, Imputed) was 2.977, the OR (SNP rs8060725, allele (A1) A, model ADD, Genotyped) was 0.7775 and the OR (SNP rs8103016, allele (A1) A, model ADD, Genotyped) was 1.589. It also gave an OR (SNP rs8103016, allele (A1) A, model DOM, Genotyped) of 1.683, an OR (SNP rs8104182, allele (A1) G, model ADD, Imputed) of 1.613 and an OR (SNP rs8104182, allele (A1) G, model DOM, Imputed) of 1.716. It also gave an OR (SNP rs8129461, allele (A1) G, model ADD, Imputed) of 0.6337, an OR (SNP rs8129461, allele (A1) G, model DOM, Imputed) of 0.6518 and an OR (SNP rs8130021, allele (A1) G, model ADD, Imputed) of 0.6337. It also gave an OR (SNP rs8130021, allele (A1) G, model DOM, Imputed) of 0.6518, an OR (SNP rs9293464, allele (A1) T, model REC, Imputed) of 0.5823 and an OR (SNP rs9295154, allele (A1) G, model DOM, Genotyped) of 1.917. For the same compound, the OR (SNP rs9310221, allele (A1) A, model DOM, Imputed) was 1.407, the OR (SNP rs9310700, allele (A1) C, model ADD, Imputed) was 1.447 and the OR (SNP rs9327555, allele (A1) T, model DOM, Imputed) was 0.6887. For the same compound, the OR (SNP rs9403367, allele (A1) C, model DOM, Imputed) was 0.5304, the OR (SNP rs9419608, allele (A1) G, model REC, Imputed) was 1.589 and the OR (SNP rs9426437, allele (A1) T, model DOM, Imputed) was 0.6833. The OR (SNP rs9454967, allele (A1) G, model DOM, Imputed) was 2.24, the OR (SNP rs9635511, allele (A1) T, model DOM, Imputed) was 0.7034 and the OR (SNP rs9812206, allele (A1) G, model ADD, Imputed) was 0.4853. The OR (SNP rs9812206, allele (A1) G, model DOM, Imputed) was 0.4903, the OR (SNP rs9813552, allele (A1) G, model ADD, Imputed) was 0.5098 and the OR (SNP rs9813552, allele (A1) G, model DOM, Imputed) was 0.5166. For the same compound, the OR (SNP rs9815037, allele (A1) T, model ADD, Imputed) was 0.4609, the OR (SNP rs9815037, allele (A1) T, model DOM, Imputed) was 0.4643 and the OR (SNP rs9825349, allele (A1) A, model ADD, Imputed) was 0.4629. The OR (SNP rs9825349, allele (A1) A, model DOM, Imputed) was 0.4664, the OR (SNP rs9833118, allele (A1) G, model ADD, Imputed) was 1.479 and the OR (SNP rs9834217, allele (A1) T, model ADD, Imputed) was 0.4658. The OR (SNP rs9834217, allele (A1) T, model DOM, Imputed) was 0.4695, the OR (SNP rs9840460, allele (A1) T, model ADD, Imputed) was 0.4629 and the OR (SNP rs9840460, allele (A1) T, model DOM, Imputed) was 0.4664. For the same compound, the OR (SNP rs9840756, allele (A1) A, model ADD, Imputed) was 0.4629, the OR (SNP rs9840756, allele (A1) A, model DOM, Imputed) was 0.4664 and the OR (SNP rs9866421, allele (A1) C, model REC, Genotyped) was 0.6994. For the same compound, the OR (marker rs133871, source caseonly) was 0.64, the OR (marker rs581401, source caseonly) was 0.59 and the OR (marker rs603940, source caseonly) was 0.59. The OR (marker rs623584, source caseonly) was 0.59.
